One molecule from patent EP3758732B1 (Leidos, Inc., dated 2024) can be followed below.

Chains of the proteins cited; added tags and fusions are not shown. Residues count along the entry.
UniProt Q15116, residues 25-167: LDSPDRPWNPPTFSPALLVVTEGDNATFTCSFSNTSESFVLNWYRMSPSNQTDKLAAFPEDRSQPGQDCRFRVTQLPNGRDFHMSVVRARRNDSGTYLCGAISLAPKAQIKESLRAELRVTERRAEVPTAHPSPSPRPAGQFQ

Experiment [1] addresses T1, soluble recombinant human PD-1 receptor (human, UniProt Q15116 25-167, limits assumed).
T1 construct: also called human PD-1 receptors
The experiment can be described thus: clonal phage ELISA.

Experiment [2] deals with T1, soluble recombinant human PD-1 receptor. Nature of the experiment: BIACORE. (Surface plasmon resonance follows binding to a sensor surface in real time, without labels.)

Results are given in words; binding and its absence hold for the method and conditions named. Some results given as binding are weak or reduced against the parent protein; the word gives no strength.

As to WNLPASFHNHHIRPHEHEWIQ (also called WQ-21; peptide WQ20) [WQ20], the binding result in experiment [1] and in experiment [2] was “binds” each time.
